From publication PMC6468601
No constants are given. Whether binding was seen depends on the method and setting. Binding seen in cells or lysates may run through a third protein. Some entries that bind do so weakly or less than the wild type. Values belong to the binder of their own block, whether it stands above or below them.

Legend:
[1] = biological target: T1, ubiquitin-specific protease 4 (USP4), mouse, endogenous (mouse (endogenous in mpkCCD14 cells and mouse kidney tubules)) (UniProt P35123); test: co-IP; lysates of mouse kidney tubule suspensions (IP buffer: 20 mM Tris, 135 mM NaCl, 5 mM EDTA, 1% NP40); IP with anti-AQP2 or anti-USP4 antibodies; blots for USP4 and AQP2; tubules treated with vehicle or dDAVP for 30 min
T1 sequence: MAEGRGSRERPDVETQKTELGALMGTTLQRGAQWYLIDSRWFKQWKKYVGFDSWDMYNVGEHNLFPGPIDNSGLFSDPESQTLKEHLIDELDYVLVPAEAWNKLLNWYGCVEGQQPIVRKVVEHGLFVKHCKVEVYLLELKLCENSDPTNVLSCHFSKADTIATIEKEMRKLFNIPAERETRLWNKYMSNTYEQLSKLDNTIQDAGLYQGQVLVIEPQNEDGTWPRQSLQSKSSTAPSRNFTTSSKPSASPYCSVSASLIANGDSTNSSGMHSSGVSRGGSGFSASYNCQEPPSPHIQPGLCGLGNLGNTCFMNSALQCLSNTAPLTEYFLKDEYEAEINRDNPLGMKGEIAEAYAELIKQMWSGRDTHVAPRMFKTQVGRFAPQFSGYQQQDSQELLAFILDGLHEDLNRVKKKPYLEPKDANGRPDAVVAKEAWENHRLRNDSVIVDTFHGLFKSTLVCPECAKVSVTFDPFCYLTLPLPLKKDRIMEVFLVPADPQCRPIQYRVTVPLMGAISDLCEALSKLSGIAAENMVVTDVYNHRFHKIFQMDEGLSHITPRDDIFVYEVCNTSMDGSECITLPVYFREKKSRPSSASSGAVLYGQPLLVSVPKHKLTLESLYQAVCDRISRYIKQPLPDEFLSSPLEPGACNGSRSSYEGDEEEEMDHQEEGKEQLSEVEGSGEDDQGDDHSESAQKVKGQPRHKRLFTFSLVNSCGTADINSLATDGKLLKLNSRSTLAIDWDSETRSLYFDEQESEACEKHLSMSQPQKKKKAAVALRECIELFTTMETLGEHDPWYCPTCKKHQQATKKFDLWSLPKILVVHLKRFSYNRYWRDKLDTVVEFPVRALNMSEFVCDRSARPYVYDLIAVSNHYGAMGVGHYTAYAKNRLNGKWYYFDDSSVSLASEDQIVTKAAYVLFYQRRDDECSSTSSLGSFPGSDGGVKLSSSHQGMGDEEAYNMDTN

[2] = biological target: T2, Aquaporin 2 (AQP2), mouse, endogenous (mouse (endogenous in mpkCCD14 cells and mouse kidney tubules)) (UniProt P56402); test: as above
T2 sequence: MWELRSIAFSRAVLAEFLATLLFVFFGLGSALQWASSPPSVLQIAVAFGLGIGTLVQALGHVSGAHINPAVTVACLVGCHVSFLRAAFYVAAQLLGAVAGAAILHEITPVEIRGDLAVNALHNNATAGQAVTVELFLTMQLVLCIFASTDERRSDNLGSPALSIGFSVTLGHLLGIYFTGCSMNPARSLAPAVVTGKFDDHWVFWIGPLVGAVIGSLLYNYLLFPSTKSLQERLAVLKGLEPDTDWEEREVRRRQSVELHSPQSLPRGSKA

[3] = biological target: T2, Aquaporin 2 (AQP2), mouse, endogenous (mouse (endogenous in mpkCCD14 cells and mouse kidney tubules)); test: co-IP; mpkCCD14 cell lysate (20 mM Tris, 135 mM NaCl, pH 7.5, 5 mM EDTA, 1% Nonidet P-40); IP with anti-AQP2 antibody on Protein-A-agarose, 60 min at room temperature; blot for USP4; cells treated with vehicle or dDAVP for 20 min before lysis

binding [1]: binds
B1: Aquaporin 2 (AQP2), mouse, endogenous (protein, UniProt P56402 1-271)
chain: T2 sequence

binding [2]: binds | binding [3]: binds
B2: ubiquitin-specific protease 4 (USP4), mouse, endogenous (enzyme, UniProt P35123 1-962)
chain: T1 sequence
